The other results are listed elsewhere or left out.

Protein sequences, listed by entry. Tags and fused reporters are not part of them. Lines headed by an entry give the natural chain unless they say otherwise; changes in a name come on top.
UniProt Q92556, whole entry, looked up: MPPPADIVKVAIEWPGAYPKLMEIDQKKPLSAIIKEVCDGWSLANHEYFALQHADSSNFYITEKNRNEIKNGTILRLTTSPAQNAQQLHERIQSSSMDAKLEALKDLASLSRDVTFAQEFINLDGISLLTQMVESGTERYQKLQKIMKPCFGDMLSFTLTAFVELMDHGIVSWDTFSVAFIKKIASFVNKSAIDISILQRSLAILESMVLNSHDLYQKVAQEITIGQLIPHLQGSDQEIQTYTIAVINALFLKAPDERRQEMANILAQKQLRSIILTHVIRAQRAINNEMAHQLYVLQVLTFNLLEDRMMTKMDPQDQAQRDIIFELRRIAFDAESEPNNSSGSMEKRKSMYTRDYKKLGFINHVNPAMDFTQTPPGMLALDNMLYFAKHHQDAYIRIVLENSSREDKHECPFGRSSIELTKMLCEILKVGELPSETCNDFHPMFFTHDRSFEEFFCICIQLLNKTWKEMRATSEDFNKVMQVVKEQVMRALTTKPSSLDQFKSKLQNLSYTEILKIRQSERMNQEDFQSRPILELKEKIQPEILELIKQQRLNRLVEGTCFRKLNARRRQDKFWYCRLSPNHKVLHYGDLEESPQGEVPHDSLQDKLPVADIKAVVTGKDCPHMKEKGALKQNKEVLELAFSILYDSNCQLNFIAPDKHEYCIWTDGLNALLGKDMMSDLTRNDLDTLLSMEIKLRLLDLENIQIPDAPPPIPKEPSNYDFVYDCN
UniProt O14638, whole entry, looked up: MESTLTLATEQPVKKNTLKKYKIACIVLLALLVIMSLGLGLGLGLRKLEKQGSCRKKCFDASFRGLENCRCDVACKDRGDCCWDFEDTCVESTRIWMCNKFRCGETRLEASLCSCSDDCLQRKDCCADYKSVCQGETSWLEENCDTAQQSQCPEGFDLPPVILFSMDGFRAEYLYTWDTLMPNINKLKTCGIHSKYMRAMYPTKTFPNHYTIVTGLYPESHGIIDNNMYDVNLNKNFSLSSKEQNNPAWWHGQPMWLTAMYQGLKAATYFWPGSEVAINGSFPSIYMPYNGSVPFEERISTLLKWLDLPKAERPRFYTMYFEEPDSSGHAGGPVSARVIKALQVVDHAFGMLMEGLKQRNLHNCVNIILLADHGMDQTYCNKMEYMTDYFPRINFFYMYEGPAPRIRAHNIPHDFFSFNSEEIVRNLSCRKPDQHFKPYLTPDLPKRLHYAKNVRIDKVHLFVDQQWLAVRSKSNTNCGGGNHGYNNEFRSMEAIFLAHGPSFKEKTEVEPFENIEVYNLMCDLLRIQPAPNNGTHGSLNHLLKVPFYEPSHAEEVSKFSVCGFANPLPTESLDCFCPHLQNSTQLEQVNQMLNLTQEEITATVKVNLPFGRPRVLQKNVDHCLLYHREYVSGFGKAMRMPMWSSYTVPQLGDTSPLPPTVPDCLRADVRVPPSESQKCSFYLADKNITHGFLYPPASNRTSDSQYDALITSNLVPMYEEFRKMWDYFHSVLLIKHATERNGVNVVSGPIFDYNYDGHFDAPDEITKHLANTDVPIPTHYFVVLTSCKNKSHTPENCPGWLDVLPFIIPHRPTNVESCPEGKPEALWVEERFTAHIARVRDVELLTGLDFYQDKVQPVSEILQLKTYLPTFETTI
UniProt O75822, whole entry, looked up: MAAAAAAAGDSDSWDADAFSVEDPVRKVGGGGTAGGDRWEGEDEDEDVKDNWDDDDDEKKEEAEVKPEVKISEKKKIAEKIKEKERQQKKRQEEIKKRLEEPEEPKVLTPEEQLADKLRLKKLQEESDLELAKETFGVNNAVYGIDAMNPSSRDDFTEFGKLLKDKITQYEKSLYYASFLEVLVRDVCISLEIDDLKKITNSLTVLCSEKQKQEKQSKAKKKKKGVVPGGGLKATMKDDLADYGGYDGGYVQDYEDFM
UniProt O43432, whole entry, looked up: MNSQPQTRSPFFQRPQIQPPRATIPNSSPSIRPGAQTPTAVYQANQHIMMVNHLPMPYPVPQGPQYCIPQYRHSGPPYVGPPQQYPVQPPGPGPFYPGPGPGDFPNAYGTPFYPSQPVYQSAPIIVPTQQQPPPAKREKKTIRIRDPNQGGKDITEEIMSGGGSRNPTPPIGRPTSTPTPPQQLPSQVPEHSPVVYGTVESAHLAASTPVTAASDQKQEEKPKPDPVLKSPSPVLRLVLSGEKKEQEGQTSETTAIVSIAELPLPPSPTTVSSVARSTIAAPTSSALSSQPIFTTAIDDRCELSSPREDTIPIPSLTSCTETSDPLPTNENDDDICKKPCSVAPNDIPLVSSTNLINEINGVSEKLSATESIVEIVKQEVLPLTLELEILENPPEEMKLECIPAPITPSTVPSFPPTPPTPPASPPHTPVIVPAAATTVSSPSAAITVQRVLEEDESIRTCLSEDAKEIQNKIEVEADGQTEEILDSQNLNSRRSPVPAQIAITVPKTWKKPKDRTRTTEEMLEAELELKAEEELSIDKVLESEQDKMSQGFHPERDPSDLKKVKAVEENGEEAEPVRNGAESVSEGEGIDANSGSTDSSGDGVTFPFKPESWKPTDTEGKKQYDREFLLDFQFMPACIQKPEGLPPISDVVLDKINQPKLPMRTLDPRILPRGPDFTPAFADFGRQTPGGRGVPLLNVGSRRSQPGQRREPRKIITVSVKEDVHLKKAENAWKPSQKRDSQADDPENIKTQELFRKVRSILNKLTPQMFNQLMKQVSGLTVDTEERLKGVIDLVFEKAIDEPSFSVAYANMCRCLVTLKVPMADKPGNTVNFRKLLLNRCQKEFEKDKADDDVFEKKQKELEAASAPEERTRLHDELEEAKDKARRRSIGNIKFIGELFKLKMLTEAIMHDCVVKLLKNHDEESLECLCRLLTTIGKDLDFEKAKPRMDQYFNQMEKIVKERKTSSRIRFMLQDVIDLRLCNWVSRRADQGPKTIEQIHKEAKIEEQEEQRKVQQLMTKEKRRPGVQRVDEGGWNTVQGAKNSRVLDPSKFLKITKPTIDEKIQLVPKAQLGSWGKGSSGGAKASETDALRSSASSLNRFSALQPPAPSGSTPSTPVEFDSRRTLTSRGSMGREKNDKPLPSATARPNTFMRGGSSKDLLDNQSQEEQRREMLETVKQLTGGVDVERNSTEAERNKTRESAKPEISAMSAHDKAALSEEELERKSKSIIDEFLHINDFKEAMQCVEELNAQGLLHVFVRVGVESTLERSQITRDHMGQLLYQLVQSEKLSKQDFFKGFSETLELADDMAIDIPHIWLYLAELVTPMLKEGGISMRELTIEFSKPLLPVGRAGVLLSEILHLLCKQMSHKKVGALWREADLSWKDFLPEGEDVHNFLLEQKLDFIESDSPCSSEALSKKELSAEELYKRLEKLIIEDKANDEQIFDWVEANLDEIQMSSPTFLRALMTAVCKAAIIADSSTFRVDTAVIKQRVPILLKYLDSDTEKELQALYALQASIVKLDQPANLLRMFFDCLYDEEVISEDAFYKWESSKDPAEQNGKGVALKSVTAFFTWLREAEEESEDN
UniProt Q9UI10, whole entry, looked up: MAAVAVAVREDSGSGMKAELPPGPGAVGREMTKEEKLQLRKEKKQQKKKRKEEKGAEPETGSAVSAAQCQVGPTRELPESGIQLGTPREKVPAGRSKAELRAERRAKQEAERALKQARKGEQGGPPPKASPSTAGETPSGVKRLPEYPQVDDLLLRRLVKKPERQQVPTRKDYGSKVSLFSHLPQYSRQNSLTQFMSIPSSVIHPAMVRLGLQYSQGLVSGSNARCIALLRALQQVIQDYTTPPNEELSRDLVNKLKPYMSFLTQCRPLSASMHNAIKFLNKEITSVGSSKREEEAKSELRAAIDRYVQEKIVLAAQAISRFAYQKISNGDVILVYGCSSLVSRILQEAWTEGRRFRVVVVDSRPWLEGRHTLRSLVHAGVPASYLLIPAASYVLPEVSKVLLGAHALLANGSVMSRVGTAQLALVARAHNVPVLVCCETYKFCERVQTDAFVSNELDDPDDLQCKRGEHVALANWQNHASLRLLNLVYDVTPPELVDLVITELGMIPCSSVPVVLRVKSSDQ
UniProt P19525: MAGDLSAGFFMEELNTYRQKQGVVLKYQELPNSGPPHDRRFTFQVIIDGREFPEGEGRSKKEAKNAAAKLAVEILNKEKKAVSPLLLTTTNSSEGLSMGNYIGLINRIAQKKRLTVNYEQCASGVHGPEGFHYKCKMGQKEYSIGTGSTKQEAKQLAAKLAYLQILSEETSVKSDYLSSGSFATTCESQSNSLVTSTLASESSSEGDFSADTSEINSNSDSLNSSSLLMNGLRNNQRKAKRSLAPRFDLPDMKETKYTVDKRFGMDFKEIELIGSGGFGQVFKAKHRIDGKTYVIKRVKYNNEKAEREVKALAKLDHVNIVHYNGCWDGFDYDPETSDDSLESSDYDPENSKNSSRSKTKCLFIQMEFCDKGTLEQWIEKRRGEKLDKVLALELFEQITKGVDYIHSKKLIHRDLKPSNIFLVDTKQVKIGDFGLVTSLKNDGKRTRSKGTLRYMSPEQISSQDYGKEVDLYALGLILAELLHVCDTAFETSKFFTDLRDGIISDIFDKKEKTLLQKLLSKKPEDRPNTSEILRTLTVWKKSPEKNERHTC
UniProt Q9BW60: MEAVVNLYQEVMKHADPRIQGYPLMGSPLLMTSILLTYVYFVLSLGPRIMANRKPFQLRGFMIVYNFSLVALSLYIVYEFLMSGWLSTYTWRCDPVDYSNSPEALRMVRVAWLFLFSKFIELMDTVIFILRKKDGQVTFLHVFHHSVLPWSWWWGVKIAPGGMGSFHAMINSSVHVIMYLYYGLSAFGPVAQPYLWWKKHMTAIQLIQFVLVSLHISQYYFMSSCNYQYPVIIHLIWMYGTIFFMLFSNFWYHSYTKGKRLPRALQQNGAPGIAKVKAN
UniProt O75071: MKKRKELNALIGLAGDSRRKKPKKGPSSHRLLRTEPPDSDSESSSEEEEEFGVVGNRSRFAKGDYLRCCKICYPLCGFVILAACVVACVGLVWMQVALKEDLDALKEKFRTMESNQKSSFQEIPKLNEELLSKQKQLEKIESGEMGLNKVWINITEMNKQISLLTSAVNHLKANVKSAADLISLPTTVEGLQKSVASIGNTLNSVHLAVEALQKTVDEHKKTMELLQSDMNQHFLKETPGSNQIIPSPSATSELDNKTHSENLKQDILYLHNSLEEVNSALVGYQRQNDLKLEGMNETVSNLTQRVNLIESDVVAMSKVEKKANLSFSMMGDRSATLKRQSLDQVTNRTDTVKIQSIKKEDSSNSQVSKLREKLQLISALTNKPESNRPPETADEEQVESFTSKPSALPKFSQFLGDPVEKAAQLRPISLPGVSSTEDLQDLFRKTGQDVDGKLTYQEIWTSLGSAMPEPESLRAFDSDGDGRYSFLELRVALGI
UniProt A1L3X0: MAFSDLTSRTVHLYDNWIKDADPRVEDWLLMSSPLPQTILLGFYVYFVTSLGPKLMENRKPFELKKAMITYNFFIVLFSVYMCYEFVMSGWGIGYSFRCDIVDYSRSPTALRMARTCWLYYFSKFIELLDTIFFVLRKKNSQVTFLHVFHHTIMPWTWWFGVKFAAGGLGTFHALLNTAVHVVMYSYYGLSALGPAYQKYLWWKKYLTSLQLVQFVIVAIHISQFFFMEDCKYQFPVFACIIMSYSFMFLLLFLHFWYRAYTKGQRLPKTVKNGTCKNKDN
UniProt Q5VUJ9: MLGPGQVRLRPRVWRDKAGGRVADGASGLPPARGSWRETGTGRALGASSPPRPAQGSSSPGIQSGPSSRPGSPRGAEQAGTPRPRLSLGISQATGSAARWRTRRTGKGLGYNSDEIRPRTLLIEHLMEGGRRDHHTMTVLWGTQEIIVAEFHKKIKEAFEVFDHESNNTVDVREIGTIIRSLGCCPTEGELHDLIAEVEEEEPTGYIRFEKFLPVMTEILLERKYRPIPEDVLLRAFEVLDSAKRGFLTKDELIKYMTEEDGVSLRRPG
UniProt P32519: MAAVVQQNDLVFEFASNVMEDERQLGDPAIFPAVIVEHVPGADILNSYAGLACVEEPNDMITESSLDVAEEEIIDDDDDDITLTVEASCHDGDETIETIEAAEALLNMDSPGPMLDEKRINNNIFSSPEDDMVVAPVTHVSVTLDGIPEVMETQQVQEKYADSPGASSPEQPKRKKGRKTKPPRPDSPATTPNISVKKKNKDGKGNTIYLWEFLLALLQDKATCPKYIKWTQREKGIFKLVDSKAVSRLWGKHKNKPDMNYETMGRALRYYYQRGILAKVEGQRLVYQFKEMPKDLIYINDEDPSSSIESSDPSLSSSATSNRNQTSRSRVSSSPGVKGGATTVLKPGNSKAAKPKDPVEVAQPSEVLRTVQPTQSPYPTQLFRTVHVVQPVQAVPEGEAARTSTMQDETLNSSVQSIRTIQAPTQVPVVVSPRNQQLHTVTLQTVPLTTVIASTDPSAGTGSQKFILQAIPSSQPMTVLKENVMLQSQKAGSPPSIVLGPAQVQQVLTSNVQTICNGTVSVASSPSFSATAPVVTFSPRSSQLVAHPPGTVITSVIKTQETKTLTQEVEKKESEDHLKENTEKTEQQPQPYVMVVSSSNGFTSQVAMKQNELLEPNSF

Compound in one assay: C=CC(=O)N1CCC[C@@H](n2nc(-c3ccc(Oc4ccccc4)cc3)c3c(N)ncnc32)C1 [ibrutinib]
The assay can be described thus: log2 fold change, soluble protein after heating vs DMSO (PISA); higher = thermal stabilisation; K562 cells, 10 uM, 30 min; active = over 0.2 and 3.5 SD of the protein, either way, in both replicates (recomputed). The essentials:
(§1)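 K562 cells at 2×10^6 cells/mL were treated with 10 μM compound for 30 min. Aliquots were heated for 3 min across 48°C-58°C, pooled, and extracted in PBS with 0.5% NP-40 at 4°C; soluble protein was the supernatant after 21,000xg for 90 min. Soluble protein was quantified by TMTpro 16plex LC-MS/MS with channel sums equalised, and reported as log2 fold change in thermal stability against DMSO controls, with values from duplicates.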
As for EPB41, A0A2R8Y6D0, the log2 fold change was inactive: 0.038.

Consider EIF2AK3 (UniProt Q9NZJ5), for which the log2 fold change is inactive: 0.13.

Turning to EML5 isoform 5 (UniProt Q05BV3), the log2 fold change is inactive: 0.015.

ELMO1 (UniProt Q92556): the log2 fold change is inactive: -0.176.

On to ENPP3 (UniProt O14638), for which the log2 fold change was inactive: 0.072.

With EIF3J (UniProt O75822), the log2 fold change was inactive: -0.031.

ELOVL5 isoform 2 (UniProt Q9NYP7): the log2 fold change was inactive: -0.075.

For EIF4ENIF1 isoform 3 (UniProt Q9NRA8), the log2 fold change was inactive: 0.035.

Compound in a further assay: CC(=O)c1cnc2ccc(-c3cc(Cl)c(O)c(Cl)c3)nc2c1N[C@H]1CC[C@H](CN(C)C)CC1
Described as above. The gist of the method:
as §1
Turning to EIF4G3 isoform 3 (UniProt O43432), the log2 fold change is inactive: -0.074.

Turning to EIF3J isoform 2 (UniProt O75822), the log2 fold change is inactive: -0.071.

EEF1AKNMT (UniProt Q8N6R0): the log2 fold change was inactive: -0.026.

With EIF2AK1 (UniProt Q9BQI3), the log2 fold change was inactive: 0.035.

In the case of EIF2B4 (UniProt Q9UI10), the log2 fold change was inactive: 0.084.

Consider EIF3G (UniProt K7ER90), for which the log2 fold change was inactive: -0.085.

EED, A0A5F9ZI63: the log2 fold change is inactive: -0.041.

For EOGT (UniProt Q5NDL2), the log2 fold change was inactive: 0.006.

For the target EIF2AK2 (UniProt P19525), the log2 fold change is inactive: 0.099.

As for ELOVL1 (UniProt Q9BW60), the log2 fold change is inactive: 0.018.

On to EIF2S3 (UniProt P41091), for which the log2 fold change was inactive: -0.004.

As to EGR1 (UniProt P18146), the log2 fold change is active: -1.07.

On to ELL (UniProt P55199), for which the log2 fold change was inactive: -0.176.

For the target EEF1G isoform 2 (UniProt P26641), the log2 fold change is inactive: 0.044.

In the case of ELAC1 (UniProt Q9H777), the log2 fold change was inactive: 0.027.

Take EIF4E2 (UniProt O60573): the log2 fold change was inactive: -0.272.

For EFCAB14 (UniProt O75071), the log2 fold change is inactive: -0.196.

EGLN1 (UniProt Q9GZT9): the log2 fold change is inactive: -0.027.

As for ENTPD6 (UniProt O75354), the log2 fold change is inactive: -0.099.

Regarding EFEMP1 (UniProt Q12805), the log2 fold change is inactive: 0.067.

ELOVL7 (UniProt A1L3X0): the log2 fold change was inactive: 0.059.

For the target EFL1 (UniProt Q7Z2Z2), the log2 fold change is inactive: -0.039.

Turning to EFCAB2 (UniProt Q5VUJ9), the log2 fold change is inactive: -0.219.

Take EPB41, A0A2R8Y6D0: the log2 fold change was inactive: -0.083.

As for EIF2AK3 (UniProt Q9NZJ5), the log2 fold change was inactive: -0.369.

On to EML5 isoform 5 (UniProt Q05BV3), for which the log2 fold change was inactive: -0.023.

Consider ENPP3 (UniProt O14638), for which the log2 fold change is inactive: -0.128.

Consider EIF3J (UniProt O75822), for which the log2 fold change was inactive: 0.035.

On to ELOVL5 isoform 2 (UniProt Q9NYP7), for which the log2 fold change was inactive: -0.032.

As for EIF4H isoform 2 (UniProt Q15056), the log2 fold change is inactive: -0.044.

For EIF4ENIF1 isoform 3 (UniProt Q9NRA8), the log2 fold change was inactive: -0.146.

For ELF1 (UniProt P32519), the log2 fold change is inactive: 0.143.

Source of the values: the supplement of paper PMC10849652.
